# In the supplement of paper PMC8728848:
# The list shows a part of the results.
# B1: Flo10 (Saccharomyces cerevisiae), P36170 (protein)
# chain: MPVAARYIFLTGLFLLSVANVALGTTEACLPAGEKKNGMTINFYQYSLKDSSTYSNPSYMAYGYADAEKLGSVSGQTKLSIDYSIPCNGASDTCACSDDDATEYSASQVVPVKRGVKLCSDNTTLSSKTEKRENDDCDQGAAYWSSDLFGFYTTPTNVTVEMTGYFLPPKTGTYTFGFATVDDSAILSVGGNVAFECCKQEQPPITSTDFTINGIKPWNADAPTDIKGSTYMYAGYYYPIKIVYSNAVSWGTLPVSVVLPDGTEVNDDFEGYVFSFDDNATQAHCSVPNPAEHARTCVSSATSSWSSSEVCTECTETESTSYVTPYVTSSSWSSSEVCTECTETESTSTSTPYVTSSSSSSSEVCTECTETESTSYVTPYVSSSTAAANYTSSFSSSSEVCTECTETESTSTSTPYVTSSSWSSSEVCTECTETESTSYVTPYVSSSTAAANYTSSFSSSSEVCTECTETESTSTSTPYVTSSSSSSSEVCTECTETESTSYVTPYVSSSTAAANYTSSFSSSSEVCTECTETESTSTSTPYVTSSSWSSSEVCTECTETESTSYVTPYVSSSTAAANYTSSFSSSSEVCTECTETESTSTSTPYATSSTGTATSFTASTSNTMTSLVQTDTTVSFSLSSTVSEHTNAPTSSVESNASTFISSNKGSVKSYVTSSIHSITPMYPSNQTVTSSSVVSTPITSESSESSASVTILPSTITSEFKPSTMKTKVVSISSSPTNLITSYDTTSKDSTVGSSTSSVSLISSISLPSSYSASSEQIFHSSIVSSNGQALTSFSSTKVSSSESSESHRTSPTTSSESGIKSSGVEIESTSTSSFSFHETSTASTSVQISSQFVTPSSPISTVAPRSTGLNSQTESTNSSKETMSSENSASVMPSSSATSPKTGKVTSDETSSGFSRDRTTVYRMTSETPSTNEQTTLITVSSCESNSCSNTVSSAVVSTATTTINGITTEYTTWCPLSATELTTVSKLESEEKTTLITVTSCESGVCSETASPAIVSTATATVNDVVTVYSTWSPQATNKLAVSSDIENSASKASFVSEAAETKSISRNNNFVPTSGTTSIETHTTTTSNASENSDNVSASEAVSSKSVTNPVLISVSQQPRGTPASSMIGSSTASLEMSSYLGIANHLLTNSGISIFIASLLLAIV
# Assays:
# Experiment in all cases: glycan array binding signal (z-score within array); higher = stronger binding
# Conditions in all cases: glycan notation: IUPAC condensed, linker removed
# Gal(a1-3)GalNAc = target: Gal(a1-3)GalNAc
# Procedure, shortened: (§1)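 Negative Z-scores can be read as non-binding. The Z-score is calculated within each array and then averaged across arrays of one protein sequence at different concentrations or buffers and across linkers. Arrays, 3228 in all, were curated from the Consortium for Functional Glycomics database and kept only where the protein sequence was available.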
# [1] = target: Gal(a1-3)[Gal(a1-4)]Gal(b1-4)GlcNAc
# Procedure, shortened: as §1
# [2] = target: Gal(a1-4)Gal(b1-3)GlcNAc(b1-2)Man(a1-3)[Gal(a1-4)Gal(b1-3)GlcNAc(b1-2)Man(a1-6)]Man(b1-4)GlcNAc(b1-4)GlcNAc
# Procedure, shortened: as §1
# Gal(a1-4)Gal(b1-4)Glc = target: Gal(a1-4)Gal(b1-4)Glc
# Procedure, shortened: as §1
# Gal(a1-4)Gal(b1-4)GlcNAc = target: Gal(a1-4)Gal(b1-4)GlcNAc
# Procedure, shortened: as §1
# [3] = target: Gal(a1-4)Gal(b1-4)GlcNAc(b1-2)Man(a1-3)[Gal(a1-4)Gal(b1-4)GlcNAc(b1-2)Man(a1-6)]Man(b1-4)GlcNAc(b1-4)GlcNAc
# Procedure, shortened: as §1
# [4] = target: Gal(a1-4)Gal(b1-4)GlcNAc(b1-3)Gal(b1-4)Glc
# Procedure, shortened: as §1
# Gal(a1-4)GlcNAc = target: Gal(a1-4)GlcNAc
# Procedure, shortened: as §1
# Gal(a1-6)Glc = target: Gal(a1-6)Glc
# Procedure, shortened: as §1
# Gal(b1-2)Gal = target: Gal(b1-2)Gal
# Procedure, shortened: as §1
# Gal(b1-3)Gal = target: Gal(b1-3)Gal
# Procedure, shortened: as §1
# Gal(b1-3)Gal(b1-4)GlcNAc = target: Gal(b1-3)Gal(b1-4)GlcNAc
# Procedure, shortened: as §1
# [5] = target: Gal(b1-3)Gal(b1-4)GlcNAc(b1-2)Man(a1-3)[Gal(b1-3)Gal(b1-4)GlcNAc(b1-2)Man(a1-6)]Man(b1-4)GlcNAc(b1-4)GlcNAc
# Procedure, shortened: as §1
# Gal(b1-3)GalNAc = target: Gal(b1-3)GalNAc
# Procedure, shortened: as §1
# [6] = target: Gal(b1-3)GalNAc(a1-3)[Fuc(a1-2)]Gal(b1-4)Glc
# Procedure, shortened: as §1
# [7] = target: Gal(b1-3)GalNAc(a1-3)[Fuc(a1-2)]Gal(b1-4)GlcNAc
# Procedure, shortened: as §1
# [8] = target: Gal(b1-3)GalNAc(b1-3)Gal(a1-4)Gal(b1-4)Glc
# Procedure, shortened: as §1
# [9] = target: Gal(b1-3)GalNAc(b1-4)Gal(b1-4)Glc
# Procedure, shortened: as §1
# [10] = target: Gal(b1-3)GalNAc(b1-4)[Neu5Ac(a2-3)]Gal(b1-4)Glc
# Procedure, shortened: as §1
# Gal(b1-3)GlcNAc = target: Gal(b1-3)GlcNAc
# Procedure, shortened: as §1
# [11] = target: Gal(b1-3)GlcNAc(a1-6)Gal(b1-4)GlcNAc
# Procedure, shortened: as §1
# [12] = target: Gal(b1-3)GlcNAc(b1-2)Man(a1-3)[Gal(b1-3)GlcNAc(b1-2)Man(a1-6)]Man(b1-4)GlcNAc(b1-4)GlcNAc
# Procedure, shortened: as §1
# [13] = target: Gal(b1-3)GlcNAc(b1-2)Man(a1-3)[Gal(b1-3)GlcNAc(b1-2)Man(a1-6)]Man(b1-4)GlcNAc(b1-4)[Fuc(a1-6)]GlcNAc
# Procedure, shortened: as §1
# [14] = target: Gal(b1-3)GlcNAc(b1-3)Gal(b1-3)GlcNAc
# Procedure, shortened: as §1
# [15] = target: Gal(b1-3)GlcNAc(b1-3)Gal(b1-4)Glc
# Procedure, shortened: as §1
# [16] = target: Gal(b1-3)GlcNAc(b1-3)Gal(b1-4)GlcNAc
# Procedure, shortened: as §1
# [17] = target: Gal(b1-3)GlcNAc(b1-3)Gal(b1-4)GlcNAc(b1-6)[Gal(b1-3)GlcNAc(b1-3)]Gal(b1-4)Glc
# Procedure, shortened: as §1
# [18] = target: Gal(b1-3)GlcNAc(b1-3)Gal(b1-4)[Fuc(a1-3)]GlcNAc(b1-6)[Gal(b1-3)GlcNAc(b1-3)]Gal(b1-4)Glc
# Procedure, shortened: as §1
# [19] = target: Gal(b1-3)GlcNAc(b1-3)GalNAc
# Procedure, shortened: as §1
# [20] = target: Gal(b1-3)GlcNAc(b1-6)Gal(b1-4)GlcNAc
# Procedure, shortened: as §1
# [21] = target: Gal(b1-3)[Fuc(a1-4)]GlcNAc
# Procedure, shortened: as §1
# [22] = target: Gal(b1-3)[Fuc(a1-4)]GlcNAc(b1-2)Man(a1-3)[Gal(b1-3)[Fuc(a1-4)]GlcNAc(b1-2)Man(a1-6)]Man(b1-4)GlcNAc(b1-4)GlcNAc
# Procedure, shortened: as §1
# [23] = target: Gal(b1-3)[Fuc(a1-4)]GlcNAc(b1-2)Man(a1-3)[Gal(b1-3)[Fuc(a1-4)]GlcNAc(b1-2)Man(a1-6)]Man(b1-4)GlcNAc(b1-4)[Fuc(a1-6)]GlcNAc
# Procedure, shortened: as §1
# [24] = target: Gal(b1-3)[Fuc(a1-4)]GlcNAc(b1-3)Gal(b1-3)[Fuc(a1-4)]GlcNAc
# Procedure, shortened: as §1
# [25] = target: Gal(b1-3)[Fuc(a1-4)]GlcNAc(b1-3)Gal(b1-4)GlcNAc
# Procedure, shortened: as §1
# [26] = target: Gal(b1-3)[Fuc(a1-4)]GlcNAc(b1-3)Gal(b1-4)[Fuc(a1-3)]GlcNAc
# Procedure, shortened: as §1
# [27] = target: Gal(b1-3)[GlcNAc(b1-6)]GalNAc
# Procedure, shortened: as §1
# [28] = target: Gal(b1-3)[Neu5Ac(a2-6)]GalNAc
# Procedure, shortened: as §1
# [29] = target: Gal(b1-3)[Neu5Ac(a2-6)]GlcNAc(b1-6)Gal(b1-4)Glc
# Procedure, shortened: as §1
# [30] = target: Gal(b1-3)[Neu5Ac(b2-6)]GalNAc
# Procedure, shortened: as §1
# [31] = target: Gal(b1-4)GalNAc(a1-3)[Fuc(a1-2)]Gal(b1-4)GlcNAc
# Procedure, shortened: as §1
# [32] = target: Gal(b1-4)GalNAc(b1-3)[Fuc(a1-2)]Gal(b1-4)GlcNAc
# Procedure, shortened: as §1
# Gal(b1-4)Glc = target: Gal(b1-4)Glc
# Procedure, shortened: as §1
# Gal(b1-4)Glc6S = target: Gal(b1-4)Glc6S
# Procedure, shortened: as §1
# Gal(b1-4)GlcNAc = target: Gal(b1-4)GlcNAc
# Procedure, shortened: as §1
binder,measurement,setting,value
B1,glycan array binding signal (z-score),Gal(a1-3)GalNAc,-0.515
same,glycan array binding signal (z-score),[1],0.048
same,glycan array binding signal (z-score),[2],0.202
same,glycan array binding signal (z-score),Gal(a1-4)Gal(b1-4)Glc,-0.634
same,glycan array binding signal (z-score),Gal(a1-4)Gal(b1-4)GlcNAc,-0.408
same,glycan array binding signal (z-score),[3],0.855
same,glycan array binding signal (z-score),[4],1.98
same,glycan array binding signal (z-score),Gal(a1-4)GlcNAc,-0.826
same,glycan array binding signal (z-score),Gal(a1-6)Glc,-0.443
same,glycan array binding signal (z-score),Gal(b1-2)Gal,-0.3
same,glycan array binding signal (z-score),Gal(b1-3)Gal,-0.137
same,glycan array binding signal (z-score),Gal(b1-3)Gal(b1-4)GlcNAc,-0.919
same,glycan array binding signal (z-score),[5],-0.326
same,glycan array binding signal (z-score),Gal(b1-3)GalNAc,-0.258
same,glycan array binding signal (z-score),[6],3.64
same,glycan array binding signal (z-score),[7],0.039
same,glycan array binding signal (z-score),[8],-0.171
same,glycan array binding signal (z-score),[9],-0.568
same,glycan array binding signal (z-score),[10],0.092
same,glycan array binding signal (z-score),Gal(b1-3)GlcNAc,1.29
same,glycan array binding signal (z-score),[11],0.52
same,glycan array binding signal (z-score),[12],-0.791
same,glycan array binding signal (z-score),[13],-0.507
same,glycan array binding signal (z-score),[14],3.58
same,glycan array binding signal (z-score),[15],-0.532
same,glycan array binding signal (z-score),[16],0.23
same,glycan array binding signal (z-score),[17],-0.581
same,glycan array binding signal (z-score),[18],0.044
same,glycan array binding signal (z-score),[19],0.31
same,glycan array binding signal (z-score),[20],0.942
same,glycan array binding signal (z-score),[21],0.019
same,glycan array binding signal (z-score),[22],0.49
same,glycan array binding signal (z-score),[23],0.232
same,glycan array binding signal (z-score),[24],-0.761
same,glycan array binding signal (z-score),[25],-0.612
same,glycan array binding signal (z-score),[26],-0.45
same,glycan array binding signal (z-score),[27],-0.789
same,glycan array binding signal (z-score),[28],-0.655
same,glycan array binding signal (z-score),[29],-0.584
same,glycan array binding signal (z-score),[30],-0.761
same,glycan array binding signal (z-score),[31],1.26
same,glycan array binding signal (z-score),[32],1.8
same,glycan array binding signal (z-score),Gal(b1-4)Glc,0.534
same,glycan array binding signal (z-score),Gal(b1-4)Glc6S,0.599
same,glycan array binding signal (z-score),Gal(b1-4)GlcNAc,0.297

# Reformatted tab-delimited: entries from further up
binder	measurement	setting	value
B1	glycan array binding signal (z-score)	Gal(b1-4)Glc6S	0.599
same	glycan array binding signal (z-score)	Gal(b1-4)GlcNAc	0.297
